For at least one entry, the source does not settle the construct or the ends of the probe. At least one verdict rests on a figure or table, not on a statement of the authors.
Molecular target: mCherry-PARP1 (Homo sapiens) (UniProt P09874)
Assay: condensation, fluorescence microscopy
Conditions: 4 µM protein, longer dsDNA acts at lower DNA and higher salt; Condensation (DIC, PARP1 truncations): 20 mM Tris pH 7.5, 50 mM NaCl, 7.5 mM MgCl2, 1 mM DTT; DNA curtains: 25-150 mM NaCl tested; temperature not stated; recombinant protein; residues 1-1014; protein details: mCherry (pET-SUMO-mCherry-PARP1)

Sequences of proteins named here, by UniProt entry; tags and fusion partners are left off.
UniProt P09874, whole entry: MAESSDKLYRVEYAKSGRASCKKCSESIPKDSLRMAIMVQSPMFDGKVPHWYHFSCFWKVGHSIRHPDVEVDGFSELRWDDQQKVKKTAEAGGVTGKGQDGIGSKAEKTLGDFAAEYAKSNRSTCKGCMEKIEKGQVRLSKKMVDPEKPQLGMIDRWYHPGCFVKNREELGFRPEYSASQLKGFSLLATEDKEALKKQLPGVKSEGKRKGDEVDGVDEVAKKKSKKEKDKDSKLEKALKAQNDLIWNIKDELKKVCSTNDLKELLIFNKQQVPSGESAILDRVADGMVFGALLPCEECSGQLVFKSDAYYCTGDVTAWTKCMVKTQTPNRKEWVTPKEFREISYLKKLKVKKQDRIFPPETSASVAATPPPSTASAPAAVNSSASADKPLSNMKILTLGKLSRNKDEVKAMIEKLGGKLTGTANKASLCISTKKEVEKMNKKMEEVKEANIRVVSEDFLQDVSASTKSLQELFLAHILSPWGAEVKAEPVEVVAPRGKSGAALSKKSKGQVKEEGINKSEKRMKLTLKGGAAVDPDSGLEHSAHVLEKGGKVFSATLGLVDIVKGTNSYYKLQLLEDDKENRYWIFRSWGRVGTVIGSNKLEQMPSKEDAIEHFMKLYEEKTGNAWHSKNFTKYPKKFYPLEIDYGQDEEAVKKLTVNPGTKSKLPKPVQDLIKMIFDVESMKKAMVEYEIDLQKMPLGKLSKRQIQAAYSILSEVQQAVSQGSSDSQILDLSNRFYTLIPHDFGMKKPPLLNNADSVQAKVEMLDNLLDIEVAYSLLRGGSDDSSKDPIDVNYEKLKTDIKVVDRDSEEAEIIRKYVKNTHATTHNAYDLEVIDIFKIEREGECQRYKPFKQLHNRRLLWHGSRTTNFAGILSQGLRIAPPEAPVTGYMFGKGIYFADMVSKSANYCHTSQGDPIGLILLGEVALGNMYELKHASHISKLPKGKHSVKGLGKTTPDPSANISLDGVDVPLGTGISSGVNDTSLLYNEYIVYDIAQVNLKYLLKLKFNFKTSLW

## GATGGTGGGGTCCGTTGATGTCAAGCATAGTCGAAAAAGGGTGCGGGACGACAACCCATG (double strand) [60 nt dsDNA]
  binding result: binds

— article PMC11624282
